# Source: paper PMC10021968
# Results are given in words; binding and its absence hold for the method and conditions named. In cells and extracts the contact can be indirect. Some entries that bind do so weakly or less than the wild type.
# T1: GrpE-like 2 (Grpel2) (mouse (endogenous in neonatal mouse cardiomyocytes)) (UniProt O88396)
# T1 sequence: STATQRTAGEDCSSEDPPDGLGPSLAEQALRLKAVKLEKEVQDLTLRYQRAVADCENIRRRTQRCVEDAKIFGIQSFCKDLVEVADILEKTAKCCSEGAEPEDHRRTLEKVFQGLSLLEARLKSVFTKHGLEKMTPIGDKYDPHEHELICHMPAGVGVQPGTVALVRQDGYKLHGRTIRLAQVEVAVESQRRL
# B1: dihydrolipoyl succinyltransferase (DLST) (protein, UniProt Q9D2G2 69-454)
# chain: NDVITVQTPAFAESVTEGDVRWEKAVGDAVAEDEVVCEIETDKTSVQVPSPANGIIEALLVPDGGKVEGGTPLFTLRKTGAAPAKAKPAETPAPAHKAEPAAPAAPPPPAAPVLTQMPPVPSPSQPPSSKPVSAIKPTAAPPLAEAGAAKGLRSEHREKMNRMRQRIAQRLKEAQNTCAMLTTFNEVDMSNIQEMRARHKDAFLKKHNLKLGFMSAFVKASAFALQEQPVVNAVIDDATKEVVYRDYIDISVAVATPRGLVVPVIRNVETMNYADIERTINELGEKARKNELAIEDMDGGTFTISNGGVFGSLFGTPIINPPQSAILGMHAIFDRPVAVGGKVEVRPMMYVALTYDHRLIDGREAVTFLRKIKAAVEDPRVLLLDL
# Target: T1, GrpE-like 2 (Grpel2) (mouse (endogenous in neonatal mouse cardiomyocytes))
# Assay: co-IP; whole-cell lysates of NCMs in IP lysis buffer (25 mM Tris-HCl pH 7.4, 150 mM NaCl, 1% NP-40, 1 mM EDTA, 5% glycerol); 1 mg supernatant with 1 ug antibody overnight at 4 °C, protein A/G magnetic beads 3 h at 4 °C; Western blot; done in both directions (Fig. 5A, B)
binder,measurement,value
B1,binding,binds
